Compound in this assay: Nc1ncnc2c1ncn2[C@@H]1O[C@H](COP(=O)(O)OP(=O)(O)OP(=O)(O)O)[C@@H](O)[C@H]1O [adenosine triphosphate]
The assay is described as follows: NP40-soluble protein abundance relative to vehicle (solubility fold change) (ratio); higher = more soluble protein in presence of ATP. An outline of the steps:
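Each value is a fold change relative to the detergent-processed vehicle, calculated per replicate from vsn-normalised intensities. Jurkat crude lysate received eight concentrations (0.1 to 10 mM) for 10 min at room temperature and 3 min at 37 °C, then was solubilised in 0.8% NP40 with benzonase (60 min, 4 °C). The ultracentrifuged supernatant was TMT-labelled and run by LC-MS/MS in three independent experiments.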

The chains behind the UniProt entries cited, without tags or fusion partners. Where a name states a change or a piece, a line headed by the entry shows the natural chain unless it says otherwise.
UniProt O00186: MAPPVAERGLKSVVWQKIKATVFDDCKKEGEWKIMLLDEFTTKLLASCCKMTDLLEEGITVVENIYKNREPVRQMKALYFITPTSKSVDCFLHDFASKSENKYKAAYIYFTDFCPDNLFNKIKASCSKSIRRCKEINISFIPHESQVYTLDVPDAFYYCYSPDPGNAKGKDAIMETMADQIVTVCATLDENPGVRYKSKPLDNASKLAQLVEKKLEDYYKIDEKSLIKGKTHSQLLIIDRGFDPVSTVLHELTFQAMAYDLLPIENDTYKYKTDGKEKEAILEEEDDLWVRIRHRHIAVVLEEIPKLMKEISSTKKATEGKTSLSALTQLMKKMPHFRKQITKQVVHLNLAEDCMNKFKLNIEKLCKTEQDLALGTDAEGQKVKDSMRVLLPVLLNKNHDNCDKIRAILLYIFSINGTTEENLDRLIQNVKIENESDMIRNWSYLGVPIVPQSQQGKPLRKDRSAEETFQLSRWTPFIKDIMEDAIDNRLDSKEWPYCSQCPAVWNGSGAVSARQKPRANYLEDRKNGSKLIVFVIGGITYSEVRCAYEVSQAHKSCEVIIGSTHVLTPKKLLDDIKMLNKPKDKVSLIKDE
UniProt O43592: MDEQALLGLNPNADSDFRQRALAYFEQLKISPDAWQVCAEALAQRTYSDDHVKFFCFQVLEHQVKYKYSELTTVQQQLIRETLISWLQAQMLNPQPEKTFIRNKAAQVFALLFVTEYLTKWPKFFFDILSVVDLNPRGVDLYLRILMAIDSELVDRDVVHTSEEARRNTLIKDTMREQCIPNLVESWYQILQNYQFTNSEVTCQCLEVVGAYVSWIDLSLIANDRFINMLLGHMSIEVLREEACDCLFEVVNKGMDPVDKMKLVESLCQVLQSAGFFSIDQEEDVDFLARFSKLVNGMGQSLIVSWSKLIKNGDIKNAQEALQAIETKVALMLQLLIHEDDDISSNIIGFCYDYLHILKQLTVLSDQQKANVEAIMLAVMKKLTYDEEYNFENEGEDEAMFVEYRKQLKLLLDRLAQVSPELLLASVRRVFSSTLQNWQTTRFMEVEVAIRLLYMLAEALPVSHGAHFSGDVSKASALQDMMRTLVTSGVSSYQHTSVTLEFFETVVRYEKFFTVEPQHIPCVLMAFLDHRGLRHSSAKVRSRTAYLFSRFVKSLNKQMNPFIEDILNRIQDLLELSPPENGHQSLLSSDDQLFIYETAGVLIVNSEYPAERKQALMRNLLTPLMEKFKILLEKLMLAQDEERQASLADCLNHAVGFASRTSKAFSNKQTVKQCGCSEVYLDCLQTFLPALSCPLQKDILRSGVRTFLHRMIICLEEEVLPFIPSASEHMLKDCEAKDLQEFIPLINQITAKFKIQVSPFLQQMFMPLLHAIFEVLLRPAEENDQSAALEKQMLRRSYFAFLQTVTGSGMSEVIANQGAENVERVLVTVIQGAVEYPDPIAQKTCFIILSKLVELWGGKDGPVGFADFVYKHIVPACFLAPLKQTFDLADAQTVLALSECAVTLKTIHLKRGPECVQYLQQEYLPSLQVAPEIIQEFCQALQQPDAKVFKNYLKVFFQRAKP
UniProt O43505: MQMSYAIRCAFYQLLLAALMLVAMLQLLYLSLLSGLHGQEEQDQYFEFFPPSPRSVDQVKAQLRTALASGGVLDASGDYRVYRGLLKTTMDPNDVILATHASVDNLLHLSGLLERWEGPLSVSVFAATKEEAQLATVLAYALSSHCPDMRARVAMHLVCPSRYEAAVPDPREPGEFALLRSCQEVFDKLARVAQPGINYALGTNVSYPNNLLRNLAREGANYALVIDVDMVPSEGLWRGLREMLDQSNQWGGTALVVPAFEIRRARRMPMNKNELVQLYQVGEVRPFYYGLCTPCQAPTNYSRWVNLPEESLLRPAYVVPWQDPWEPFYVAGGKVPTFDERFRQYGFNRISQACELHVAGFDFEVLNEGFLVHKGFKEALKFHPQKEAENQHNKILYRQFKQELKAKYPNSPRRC
UniProt O14672: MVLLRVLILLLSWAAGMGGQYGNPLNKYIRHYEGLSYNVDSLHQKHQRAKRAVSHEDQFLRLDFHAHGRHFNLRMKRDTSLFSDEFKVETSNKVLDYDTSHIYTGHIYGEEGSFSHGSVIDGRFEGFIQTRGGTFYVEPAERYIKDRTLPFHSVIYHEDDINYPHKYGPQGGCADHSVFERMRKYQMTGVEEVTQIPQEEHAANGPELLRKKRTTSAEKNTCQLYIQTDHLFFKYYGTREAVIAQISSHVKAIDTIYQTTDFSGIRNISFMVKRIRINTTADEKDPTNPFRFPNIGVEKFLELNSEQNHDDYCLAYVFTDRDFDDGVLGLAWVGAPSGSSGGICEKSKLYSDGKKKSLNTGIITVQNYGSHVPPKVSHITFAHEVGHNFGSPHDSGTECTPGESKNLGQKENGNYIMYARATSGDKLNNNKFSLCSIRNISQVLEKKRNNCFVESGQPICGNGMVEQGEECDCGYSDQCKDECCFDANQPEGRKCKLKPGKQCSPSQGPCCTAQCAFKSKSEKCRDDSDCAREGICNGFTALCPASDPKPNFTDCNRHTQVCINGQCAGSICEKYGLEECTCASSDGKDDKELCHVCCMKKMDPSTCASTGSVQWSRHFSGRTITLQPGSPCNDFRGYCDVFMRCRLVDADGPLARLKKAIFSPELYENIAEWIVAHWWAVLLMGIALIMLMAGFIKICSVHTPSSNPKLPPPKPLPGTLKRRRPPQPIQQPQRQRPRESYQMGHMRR
UniProt O00308: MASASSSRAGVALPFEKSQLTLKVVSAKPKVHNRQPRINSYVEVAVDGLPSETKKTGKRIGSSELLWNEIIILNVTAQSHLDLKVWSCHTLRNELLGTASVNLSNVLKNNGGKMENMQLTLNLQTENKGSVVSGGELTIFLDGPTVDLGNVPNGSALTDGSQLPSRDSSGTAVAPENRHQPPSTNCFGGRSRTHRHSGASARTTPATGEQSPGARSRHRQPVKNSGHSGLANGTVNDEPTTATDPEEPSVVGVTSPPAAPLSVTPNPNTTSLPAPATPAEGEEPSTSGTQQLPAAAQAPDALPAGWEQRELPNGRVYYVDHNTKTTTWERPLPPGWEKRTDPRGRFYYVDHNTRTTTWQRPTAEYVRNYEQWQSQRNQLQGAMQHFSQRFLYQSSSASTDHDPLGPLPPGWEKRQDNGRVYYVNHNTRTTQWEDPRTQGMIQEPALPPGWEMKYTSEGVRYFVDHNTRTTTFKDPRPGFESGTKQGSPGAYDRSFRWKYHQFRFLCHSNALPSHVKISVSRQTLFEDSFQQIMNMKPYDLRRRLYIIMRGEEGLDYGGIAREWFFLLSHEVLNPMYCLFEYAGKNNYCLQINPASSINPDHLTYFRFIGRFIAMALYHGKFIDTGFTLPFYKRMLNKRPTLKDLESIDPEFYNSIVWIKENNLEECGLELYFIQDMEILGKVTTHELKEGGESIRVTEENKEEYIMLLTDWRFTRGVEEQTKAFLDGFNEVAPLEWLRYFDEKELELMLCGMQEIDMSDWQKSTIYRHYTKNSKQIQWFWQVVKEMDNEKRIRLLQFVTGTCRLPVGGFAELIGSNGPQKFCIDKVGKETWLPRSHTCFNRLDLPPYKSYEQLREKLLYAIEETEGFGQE
UniProt O43572: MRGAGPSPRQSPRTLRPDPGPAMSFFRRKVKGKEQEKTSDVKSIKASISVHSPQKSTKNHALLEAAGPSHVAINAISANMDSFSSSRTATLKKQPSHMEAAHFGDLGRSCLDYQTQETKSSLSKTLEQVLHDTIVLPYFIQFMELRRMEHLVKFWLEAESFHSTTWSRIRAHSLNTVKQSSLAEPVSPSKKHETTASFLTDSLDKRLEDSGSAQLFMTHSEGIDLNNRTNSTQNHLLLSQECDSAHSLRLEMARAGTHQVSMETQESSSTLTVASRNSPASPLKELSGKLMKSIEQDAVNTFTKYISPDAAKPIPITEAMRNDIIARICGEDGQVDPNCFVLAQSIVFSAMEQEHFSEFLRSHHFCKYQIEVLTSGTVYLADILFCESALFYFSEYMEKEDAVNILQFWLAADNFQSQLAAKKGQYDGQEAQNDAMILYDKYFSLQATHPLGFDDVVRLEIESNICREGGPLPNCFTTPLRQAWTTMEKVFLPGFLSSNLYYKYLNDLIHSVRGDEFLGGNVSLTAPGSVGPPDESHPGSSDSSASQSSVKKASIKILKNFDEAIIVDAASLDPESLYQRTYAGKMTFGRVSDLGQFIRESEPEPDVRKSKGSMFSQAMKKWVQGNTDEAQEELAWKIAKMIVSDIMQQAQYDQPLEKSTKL
UniProt O15116: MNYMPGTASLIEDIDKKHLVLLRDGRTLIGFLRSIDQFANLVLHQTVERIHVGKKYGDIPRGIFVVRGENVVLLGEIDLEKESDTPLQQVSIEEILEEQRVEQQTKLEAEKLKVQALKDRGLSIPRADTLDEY
UniProt O43639, whole entry: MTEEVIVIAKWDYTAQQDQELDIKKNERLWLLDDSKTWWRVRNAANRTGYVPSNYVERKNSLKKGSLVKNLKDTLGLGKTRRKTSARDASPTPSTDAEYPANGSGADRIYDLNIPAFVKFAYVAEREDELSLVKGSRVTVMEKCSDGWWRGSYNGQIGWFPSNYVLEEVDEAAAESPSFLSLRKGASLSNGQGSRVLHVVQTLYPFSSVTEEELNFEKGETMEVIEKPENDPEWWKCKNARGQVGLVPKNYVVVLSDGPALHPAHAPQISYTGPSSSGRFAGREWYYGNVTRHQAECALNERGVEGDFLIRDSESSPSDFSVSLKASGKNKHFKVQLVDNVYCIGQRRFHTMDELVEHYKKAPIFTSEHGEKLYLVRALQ
UniProt O15015: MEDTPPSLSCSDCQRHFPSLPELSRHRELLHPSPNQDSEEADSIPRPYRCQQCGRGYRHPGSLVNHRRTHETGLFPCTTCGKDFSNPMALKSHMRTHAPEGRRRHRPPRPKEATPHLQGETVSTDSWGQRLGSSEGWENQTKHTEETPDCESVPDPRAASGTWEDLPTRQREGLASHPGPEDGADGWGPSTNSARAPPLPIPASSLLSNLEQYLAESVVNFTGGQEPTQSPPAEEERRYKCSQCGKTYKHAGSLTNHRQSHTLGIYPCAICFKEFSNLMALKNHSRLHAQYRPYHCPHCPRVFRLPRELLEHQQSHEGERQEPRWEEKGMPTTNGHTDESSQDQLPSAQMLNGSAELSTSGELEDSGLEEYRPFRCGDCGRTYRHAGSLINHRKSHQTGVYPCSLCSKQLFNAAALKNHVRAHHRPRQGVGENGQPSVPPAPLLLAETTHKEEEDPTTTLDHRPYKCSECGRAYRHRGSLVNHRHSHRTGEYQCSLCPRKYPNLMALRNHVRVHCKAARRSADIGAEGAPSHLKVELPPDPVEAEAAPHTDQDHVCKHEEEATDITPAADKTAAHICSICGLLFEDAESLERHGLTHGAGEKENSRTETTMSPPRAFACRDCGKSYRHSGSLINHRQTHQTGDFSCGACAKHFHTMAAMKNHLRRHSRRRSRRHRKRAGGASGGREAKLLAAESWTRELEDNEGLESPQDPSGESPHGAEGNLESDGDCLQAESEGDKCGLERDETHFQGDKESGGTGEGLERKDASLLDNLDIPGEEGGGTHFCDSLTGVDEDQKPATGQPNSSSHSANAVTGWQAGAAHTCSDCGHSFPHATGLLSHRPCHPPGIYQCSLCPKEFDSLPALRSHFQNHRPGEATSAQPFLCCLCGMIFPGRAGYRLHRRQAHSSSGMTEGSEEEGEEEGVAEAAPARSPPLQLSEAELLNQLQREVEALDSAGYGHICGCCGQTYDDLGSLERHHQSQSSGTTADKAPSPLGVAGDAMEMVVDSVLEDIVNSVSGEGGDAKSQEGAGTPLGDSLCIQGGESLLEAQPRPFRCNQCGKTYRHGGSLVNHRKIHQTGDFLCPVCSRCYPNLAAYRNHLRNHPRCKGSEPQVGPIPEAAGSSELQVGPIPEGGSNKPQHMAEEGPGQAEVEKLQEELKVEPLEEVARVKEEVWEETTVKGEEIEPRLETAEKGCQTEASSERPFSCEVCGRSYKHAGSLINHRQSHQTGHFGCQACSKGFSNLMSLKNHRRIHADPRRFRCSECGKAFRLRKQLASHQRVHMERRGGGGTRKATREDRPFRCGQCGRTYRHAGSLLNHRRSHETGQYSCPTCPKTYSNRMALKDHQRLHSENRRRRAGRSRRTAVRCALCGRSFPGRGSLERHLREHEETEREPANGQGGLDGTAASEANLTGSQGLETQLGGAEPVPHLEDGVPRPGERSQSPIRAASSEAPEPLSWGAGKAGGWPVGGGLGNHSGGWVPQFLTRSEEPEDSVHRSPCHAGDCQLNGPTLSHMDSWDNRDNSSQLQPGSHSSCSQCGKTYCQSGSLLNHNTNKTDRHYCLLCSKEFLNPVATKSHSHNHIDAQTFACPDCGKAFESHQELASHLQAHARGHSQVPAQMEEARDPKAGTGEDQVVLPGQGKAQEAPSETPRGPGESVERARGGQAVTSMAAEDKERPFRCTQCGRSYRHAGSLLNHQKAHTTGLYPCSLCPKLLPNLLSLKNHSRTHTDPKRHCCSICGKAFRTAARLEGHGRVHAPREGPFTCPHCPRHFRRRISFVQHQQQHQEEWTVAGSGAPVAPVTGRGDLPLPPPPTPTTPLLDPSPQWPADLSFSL

± gives the standard deviation of the averaged measurements. The list shows a part of the results, in another mix than the full data. Small differences around the control level are noise.

Consider NVL (UniProt O15381), for which the NP40-soluble protein abundance by setting is: (concentration: 0.1mM) 1.08 ± 0.065; (concentration: 0.5mM) 1.21 ± 0.076.
On to HIP1 (UniProt O00291), for which the NP40-soluble protein abundance is, setting by setting: (concentration: 0.1mM) 1.02 ± 0.038; (concentration: 0.5mM) 1.02 ± 0.015.
Turning to UniProt O43704, the NP40-soluble protein abundance by setting is: (concentration: 0.1mM) 0.967 ± 0.026; (concentration: 0.5mM) 0.967 ± 0.027.
With UniProt O00409 and related entries, the NP40-soluble protein abundance by setting is: (concentration: 0.1mM) 0.997 ± 0.024; (concentration: 0.5mM) 1.01 ± 0.095.
On the same counts, the results for STX6 (UniProt O43752) are 0.991 ± 0.043 and 0.925 ± 0.074.
Turning to STXBP3 (UniProt O00186), the NP40-soluble protein abundance is, setting by setting: (concentration: 0.1mM) 1.05 ± 0.06; (concentration: 0.5mM) 1.04 ± 0.054.
As to “M0R0C6 and related entries (UniProt Q92945)”, the NP40-soluble protein abundance is, setting by setting: (concentration: 0.1mM) 0.966 ± 0.029; (concentration: 0.5mM) 0.945 ± 0.012.
For the target ARPC1B (UniProt O15143), the NP40-soluble protein abundance turned out to be 0.99 ± 0.049 (concentration: 0.1mM) and 1.01 ± 0.028 (concentration: 0.5mM).
In the case of UniProt O43402, the NP40-soluble protein abundance was determined as 1.03 ± 0.045 (concentration: 0.1mM) and 0.98 ± 0.019 (concentration: 0.5mM).
On the same counts, the results for UniProt O14975 and related entries are 1.08 ± 0.1 and 1.11 ± 0.058.
In the same order, the values of “M0R0F2 and related entries (UniProt Q8N594)” are 1.08 ± 0.068 and 1.06 ± 0.095.
UniProt O43736 and related entries: the NP40-soluble protein abundance by setting is: (concentration: 0.1mM) 0.954 ± 0.027; (concentration: 0.5mM) 0.934 ± 0.025.
On the same counts, the results for PPIH (UniProt O43447) are 1.01 ± 0.016 and 0.994 ± 0.019.
As for XPOT (UniProt O43592), the NP40-soluble protein abundance reads like this: (concentration: 0.1mM) 1.01 ± 0.05; (concentration: 0.5mM) 1 ± 0.013.
As to HTATSF1 (UniProt O43719), the NP40-soluble protein abundance is 0.972 ± 0.036 (concentration: 0.1mM) and 1 ± 0.081 (concentration: 0.5mM).
On the same counts, the results for NDC80 (UniProt O14777) are 0.946 ± 0.06 and 0.936 ± 0.11.
With UniProt O14530 and related entries, the NP40-soluble protein abundance (concentration: 0.1mM) came to 0.952 ± 0.037 and the NP40-soluble protein abundance (concentration: 0.5mM) stood at 0.953 ± 0.11.
UniProt O00148: the NP40-soluble protein abundance runs as follows: (concentration: 0.1mM) 1.04 ± 0.042; (concentration: 0.5mM) 1.04 ± 0.056.
Regarding POLRMT (UniProt O00411), the NP40-soluble protein abundance is, setting by setting: (concentration: 0.1mM) 1.03 ± 0.038; (concentration: 0.5mM) 1.06 ± 0.15.
On the same counts, the results for UniProt O43310 and related entries are 1.02 ± 0.13 and 1.01 ± 0.046.
On to UniProt O43164 and related entries, for which the NP40-soluble protein abundance (concentration: 0.1mM) came out at 0.997 ± 0.023 and the NP40-soluble protein abundance (concentration: 0.5mM) stood at 1 ± 0.083.
In the same order, the values of MCM3AP (UniProt O60318) are 1.02 ± 0.015 and 1.01 ± 0.09.
As to UniProt O15066 and related entries, the NP40-soluble protein abundance by setting is: (concentration: 0.1mM) 0.991 ± 0.027; (concentration: 0.5mM) 0.997 ± 0.053.
Regarding UniProt O60313-2|E5KLJ5, the NP40-soluble protein abundance is, setting by setting: (concentration: 0.1mM) 1.02 ± 0.036; (concentration: 0.5mM) 1.02 ± 0.042.
Consider UniProt O14787-2, for which the NP40-soluble protein abundance reads like this: (concentration: 0.1mM) 0.944 ± 0.032; (concentration: 0.5mM) 0.979 ± 0.087.
On the same counts, the results for TOR1B (UniProt O14657) are 0.994 ± 0.069 and 1 ± 0.081.
As to RNF113A (UniProt O15541), the NP40-soluble protein abundance (concentration: 0.1mM) came out at 1.08 ± 0.035 and the NP40-soluble protein abundance (concentration: 0.5mM) stood at 1.098 ± 0.0068.
Consider GTPBP1 (UniProt O00178), for which the NP40-soluble protein abundance is, setting by setting: (concentration: 0.1mM) 1.04 ± 0.049; (concentration: 0.5mM) 1.05 ± 0.0017.
On the same counts, the results for C2CD2L (UniProt O14523) are 1.03 ± 0.094 and 1.049 ± 0.0027.
In the case of IPO8 (UniProt O15397), the NP40-soluble protein abundance by setting is: (concentration: 0.1mM) 1.02 ± 0.042; (concentration: 0.5mM) 1.036 ± 0.0044.
POLR3A (UniProt O14802): the NP40-soluble protein abundance was 1.02 ± 0.013 (concentration: 0.1mM) and 1.03 ± 0.02 (concentration: 0.5mM).
On the same counts, the results for UniProt O15260 and related entries are 1.04 ± 0.083 and 0.954 ± 0.082.
In the same order, the values of PIK3CD (UniProt O00329) are 1.1 ± 0.12 and 1.06 ± 0.12.
As for LANCL1 (UniProt O43813), the NP40-soluble protein abundance reads like this: (concentration: 0.1mM) 1.01 ± 0.069; (concentration: 0.5mM) 1.01 ± 0.028.
On the same counts, the results for UniProt O60271 and related entries are 1.01 ± 0.033 and 0.995 ± 0.033.
In the same order, the values of PPM1G (UniProt O15355) are 0.974 ± 0.039 and 0.976 ± 0.024.
On the same counts, the results for DCTN6 (UniProt O00399) are 1 ± 0.041 and 1 ± 0.056.
Turning to B4GAT1 (UniProt O43505), the NP40-soluble protein abundance runs as follows: (concentration: 0.1mM) 1.07 ± 0.059; (concentration: 0.5mM) 1.04 ± 0.096.
On the same counts, the results for ADAM10 (UniProt O14672) are 1 ± 0.046 and 1.02 ± 0.052.
Consider UniProt O00308 and related entries, for which the NP40-soluble protein abundance reads like this: (concentration: 0.1mM) 1.04 ± 0.087; (concentration: 0.5mM) 1.02 ± 0.15.
As for CDC7 (UniProt O00311), the NP40-soluble protein abundance is, setting by setting: (concentration: 0.1mM) 1.1 ± 0.12; (concentration: 0.5mM) 1.09 ± 0.14.
Take SPTLC2 (UniProt O15270): the NP40-soluble protein abundance (concentration: 0.1mM) was determined as 1.06 ± 0.061 and the NP40-soluble protein abundance (concentration: 0.5mM) is 1.02 ± 0.057.
In the same order, the values of “UniProt O43561-3|O43561 and related entries” are 0.887 ± 0.1 and 0.801 ± 0.12.
Regarding UniProt O00154-4|O00154-5, the NP40-soluble protein abundance (concentration: 0.1mM) was determined as 1.04 ± 0.087 and the NP40-soluble protein abundance (concentration: 0.5mM) was 0.987 ± 0.025.
Turning to MAST3 (UniProt O60307), the NP40-soluble protein abundance runs as follows: (concentration: 0.1mM) 1.28 ± 0.072; (concentration: 0.5mM) 1.28 ± 0.15.
On the same counts, the results for UniProt O43598 and related entries are 0.939 ± 0.043 and 0.912 ± 0.061.
In the same order, the values of AKAP10 (UniProt O43572) are 1.06 ± 0.077 and 1.07 ± 0.023.
On the same counts, the results for ZW10 (UniProt O43264) are 1.04 ± 0.029 and 1.05 ± 0.032.
Regarding LSM1 (UniProt O15116), the NP40-soluble protein abundance is, setting by setting: (concentration: 0.1mM) 0.944 ± 0.072; (concentration: 0.5mM) 0.961 ± 0.12.
In the same order, the values of UniProt O43379 and related entries are 1.02 ± 0.024 and 1.026 ± 0.0055.
Turning to WASL (UniProt O00401), the NP40-soluble protein abundance turned out to be 1.02 ± 0.089 (concentration: 0.1mM) and 0.936 ± 0.069 (concentration: 0.5mM).
Take PDE6D (UniProt O43924): the NP40-soluble protein abundance by setting is: (concentration: 0.1mM) 1.08 ± 0.072; (concentration: 0.5mM) 1 ± 0.052.
In the same order, the values of SMARCA5 (UniProt O60264) are 1.08 ± 0.024 and 1.18 ± 0.037.
Regarding UniProt O14773 and related entries, the NP40-soluble protein abundance is, setting by setting: (concentration: 0.1mM) 0.912 ± 0.02; (concentration: 0.5mM) 0.889 ± 0.045.
On to NCK2 (UniProt O43639), for which the NP40-soluble protein abundance worked out at 1.02 ± 0.021 (concentration: 0.1mM) and 0.993 ± 0.031 (concentration: 0.5mM).
Consider UniProt O15091, for which the NP40-soluble protein abundance reads like this: (concentration: 0.1mM) 0.997 ± 0.025; (concentration: 0.5mM) 1.01 ± 0.046.
Take UniProt O14828 and related entries: the NP40-soluble protein abundance was 0.979 ± 0.051 (concentration: 0.1mM) and 1 ± 0.042 (concentration: 0.5mM).
Take UniProt O15015 and related entries: the NP40-soluble protein abundance is 1.01 ± 0.041 (concentration: 0.1mM) and 0.978 ± 0.044 (concentration: 0.5mM).
In the case of UniProt O60337 and related entries, the NP40-soluble protein abundance (concentration: 0.1mM) worked out at 1.16 ± 0.2 and the NP40-soluble protein abundance (concentration: 0.5mM) was determined as 1.02 ± 0.018.
On to “M0QZ12 and related entries (UniProt Q96CP6)”, for which the NP40-soluble protein abundance by setting is: (concentration: 0.1mM) 1.02 ± 0.069; (concentration: 0.5mM) 1.02 ± 0.083.

Values taken from the supplement of paper PMC6411743.
